Numbering of substitutions follows the chain as printed. Results are given in words; binding and its absence hold for the method and conditions named. Some results given as binding are weak or reduced against the parent protein; the word gives no strength.

Our source for the binding values is patent US20110294982A1 (Ablynx, published 2011).

B1: 153-G1 (VHH)
VHH: EVQLVESGGGLVQAGGSLRLSCTVSGSTGSINAMGWYRQAPGKQRELVAIIYSSGRIDYADSVKGRFTISRDNAKNTVYLQMNNLQPDDTAAYYCNAANPNTGWQRPHRASWGQGTQVTVSS
B2: 153-G1 (SEQ ID NO: 1350) (VHH)
VHH: B1 VHH
B3: 139-C2 (VHH)
VHH: B1 VHH with G9R, Y79B, N84S, Q86K
B4: 138-C2 (VHH)
VHH: B1 VHH with L11V, R56T, D58B, N84S, Q86K
B5: 138-H2 (VHH)
VHH: EVQLVESGGGLVQAGGSQKLSCAASGSTLIYTMGWYRQALGKKRVFVASISRDGSTIYGDSVKGRFTISRDNAKNTAYLQMNSLKPEDTAVYVCKAEGWYQGYWGQGTQVTVSS
B6: 248-H1 (VHH)
VHH: B5 VHH with S83N
B7: 138-A5 (VHH)
VHH: EVQLVESGGGLVQAGGSLRLSCAASGNTFSINAVGWYRQAPEKQRELVAIILSSGTTDYADSVKGRFTISRDNAKNIVYLQMNSLKPEDTAVYYCRVADREMGWAYWGQGTQVTVSS
B8: 153-A8 (VHH)
VHH: EVQLVESGGGLVQAGGSVRLSCAASGVIFRFVLMGWYRQAPGKQRELVAQITSSDATNYADSVKGRFTISRDNAKKTVDLQMNSLKPEDTAVYYCLLARGPDVYWGQGTQVTVSS
B9: 139-B2 (VHH)
VHH: EVQLVESGGGLVQTGGSLRLSCAASGSTFNINAWGWYRQAPGKQRELVAVISSSGSTDYSDAVKGRFTISTVNAGNTVYLEMNSLKPEDTAVYYCRAADSGPWRYWGQGSQVTVSS
B10: 138-F2 (VHH)
VHH: EVQLVESGGGLVQAGGSLRLSCAPSSSAVSIVHIQWHRQAPGKQRELVASVNSRGTTNYADSVKGRAIISRDNAKNTVYLQMNSLKPEDTAVYYCYARTLQLGALRDYWGQGTQVTVSS
B11: 235-E3 (VHH)
VHH: EVQLVESGGGLVQAGGSLRLSCTVSGSTGSINVMGWYRQAPGKQRELVAIIYSSGTLDYADSVKGRFTISRDNAKNTVYLQMNSLKPDDTAAYYCNAAMQDSAWLRPHRASWGQGTQVTVSS
B12: 153-E10 (VHH)
VHH: EVQLVESGGGLVQTGGSLRLSCAASGSIFMILAMGWYRQAPGKQRELVTTIIRDGKTYYSDSVKDRFTISRDNAKNTAYLQMNSLKPEDTAVYYCYTKVIVMGAGMDDNDFFGQGTQVTVSS
B13: 138-A2 (VHH)
VHH: EVQLVESGGELVQAGGSLRLSCAASGSVSSINVMGWYRQAPGKQRELVATISSSGYTDYSDSAKGRFTISRDNKNTVHLQMNSLKPEDTAVYYCRASTLRTGWFTGWGQGTQVTVSS
B14: 152-F4 (VHH)
VHH: B13 VHH with E10G, G35A, S53T, F104L, T105M
B15: 152-C4 (VHH)
VHH: B13 VHH with E10G, A24T, G35A, S53T, F104L, T105M
B16: 152-E1 (VHH)
VHH: B13 VHH with E10G, S30A, G35A, S54T, H78Y, V91I, F104L, T105M
B17: 152-D4 (VHH)
VHH: B13 VHH with V2M
B18: 152-F2 (VHH)
VHH: B13 VHH with Y56C
B19: 138-B2 (VHH)
VHH: B13 VHH with S25P, S60A
B20: 153-H4 (VHH)
VHH: B13 VHH with E10G, G35A, S54T, T105M
B21: 139-F10 (VHH)
VHH: EVQLVESGGGLVQAGGSLRLSCAASGSRLRFELMGWYRQAPGKPRDLVALITSSGSANYADSVKGRFTISRDNAKNTLYLQMNSLKPEDTGVYYCNAHTYTDNLWGQGTQVTVSS
B22: 152-B10 (VHH)
VHH: B21 VHH with L29F, L33I, P87S
B23: 236-B5 (VHH)
VHH: B21 VHH with L29F, L33I, K43R, P44M, A57T
B24: 152-H10 (VHH)
VHH: B21 VHH with L11V, Q13E, S25T, L29F, L33I, S53R, N73S
B25: 236-B11 (VHH)
VHH: B21 VHH with L29F, S53R
B26: 152-G9 (VHH)
VHH: B21 VHH with A14V, L29F
B27: 153-F9 (VHH)
VHH: B21 VHH with K86E
B28: 248-G7 (VHH)
VHH: B21 VHH with G8R
B29: 139-D10 (VHH)
VHH: B21 VHH with V2M
B30: 153-C7 (VHH)
VHH: B21 VHH with E1K, L29F, D61E
B31: 153-C9 (VHH)
VHH: B21 VHH with L29F
B32: 236-D5 (VHH)
VHH: B21 VHH with Q13R, L29F, L33I, K43S, P44A, S53N, L78F
B33: 139-H10 (VHH)
VHH: EVQLVESGGGLVQAGGSLRLSCAASASILSINTMDWFRRTPGKQRELVSTITRDGRTTYADSVKGRFTLSRDNTKNTVSLQMNSLKPEDTAVYYCLANVETTRGLTKNYWGQGIQVTVSS
B34: 138-G2 (VHH)
VHH: EVQLVESGGGLVQPGGSLRLSCAASGFTLDYYNIGWFRQAPGEEREGVSCVSSSGGSTYYADSVKGRFTISRDNAKNTVYLQMNSLKPEDTAVYYCATLNLFTTCDGPWGYEYDYYGQGTQVTVSS
B35: 138-D2 (VHH)
VHH: B34 VHH with E43K, S53D
B36: 138-E4 (VHH)
VHH: B34 VHH with Y31S
B37: 138-H5 (VHH)
VHH: B34 VHH with E43K

One assay concerns the target Human beta2 (human) (UniProt P05107). The experiment in a line: specificity ELISA on coated integrins, periplasmic extract. For orientation: In an ELISA, binding on a coated surface is turned into a signal by an enzyme label.
As to B1, the binding result is “binds”. Still for that read-out and setting: the result for B2 reads “binds”; that for B3, “binds”; that for B4, “binds”. Still for that read-out and setting: for B5 the value was “binds”. On to B6, for which the binding entry is listed as “binds”. Same read-out and setting: the result for B7 reads “binds”; that for B8, “binds”; that for B9, “binds”. On the same count and under the same terms, for B10 the value was “binds”.

On to B11, for which the binding entry is “binds”. Still for that read-out and setting: for B12 the value was “binds”. Same read-out and setting: the result for B13 reads “binds”; that for B14, “binds”; that for B15, “binds”. On the same count and under the same terms, the result for B16 reads “binds”; that for B17, “binds”; that for B18, “binds”. For the molecule B19, the binding result is listed as “binds”. Still for that read-out and setting: for B20 the value was “binds”; for B21, “binds”. Same read-out and setting: the result for B22 reads “binds”; that for B23, “binds”; that for B24, “binds”. Still for that read-out and setting: for B25 the value was “binds”.

With B26, the binding entry is listed as “binds”. Still for that read-out and setting: the result for B27 reads “binds”; that for B28, “binds”; that for B29, “binds”. The same measure, in the same setting: for B30 the value was “binds”; for B31, “binds”. Still for that read-out and setting: for B32 the value was “binds”. On to B33, for which the binding result is given as “binds”.

Another assay deals with T1, Human alphaL (human) (UniProt P20701).
T1 sequence (looked up): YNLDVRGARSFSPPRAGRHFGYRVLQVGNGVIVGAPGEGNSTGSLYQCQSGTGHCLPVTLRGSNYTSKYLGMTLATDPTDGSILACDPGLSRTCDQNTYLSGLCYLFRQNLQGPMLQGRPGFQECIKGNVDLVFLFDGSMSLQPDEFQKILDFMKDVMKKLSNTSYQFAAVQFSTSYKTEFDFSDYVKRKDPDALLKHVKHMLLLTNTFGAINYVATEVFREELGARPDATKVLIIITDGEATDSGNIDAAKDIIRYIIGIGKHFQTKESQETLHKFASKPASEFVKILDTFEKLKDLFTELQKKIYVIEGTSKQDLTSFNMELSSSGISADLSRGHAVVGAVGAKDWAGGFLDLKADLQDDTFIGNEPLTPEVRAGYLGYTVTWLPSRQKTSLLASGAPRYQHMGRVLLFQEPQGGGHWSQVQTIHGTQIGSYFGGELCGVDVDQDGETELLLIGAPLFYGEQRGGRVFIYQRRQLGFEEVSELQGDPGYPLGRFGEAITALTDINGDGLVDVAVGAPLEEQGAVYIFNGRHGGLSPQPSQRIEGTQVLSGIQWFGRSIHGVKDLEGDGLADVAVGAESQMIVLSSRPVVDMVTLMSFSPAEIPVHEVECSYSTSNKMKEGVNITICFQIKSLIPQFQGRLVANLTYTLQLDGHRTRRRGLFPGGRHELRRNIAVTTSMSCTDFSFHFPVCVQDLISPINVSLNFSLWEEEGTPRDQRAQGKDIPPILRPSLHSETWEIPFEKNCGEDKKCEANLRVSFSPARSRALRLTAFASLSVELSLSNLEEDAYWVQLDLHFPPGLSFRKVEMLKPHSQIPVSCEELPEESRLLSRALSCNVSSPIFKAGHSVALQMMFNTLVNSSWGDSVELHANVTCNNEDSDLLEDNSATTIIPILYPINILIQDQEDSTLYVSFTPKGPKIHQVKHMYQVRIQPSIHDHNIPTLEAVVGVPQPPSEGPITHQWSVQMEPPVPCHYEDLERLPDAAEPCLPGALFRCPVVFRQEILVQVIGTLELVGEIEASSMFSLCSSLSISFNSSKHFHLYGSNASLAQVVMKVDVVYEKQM
Described as above.
With B34, the binding result is “binds”. Same read-out and setting: for B35 the value was “binds”; for B36, “binds”. The same measure, in the same setting: the result for B37 reads “binds”.
